Construct, isoform or probe ends are uncertain for at least one entry. At least one verdict was read from the data and is not stated in words by the source. Protein sequences can lack the tags named with them.

Here are results for one sequence from paper PMC11049809, “Determinants of mer Promoter Activity from Pseudomonas aeruginosa”.

In this data set the target is T1, MerR (Tn501) (Pseudomonas aeruginosa (Tn501)) (UniProt P0A183).
T1 sequence (looked up, limits assumed): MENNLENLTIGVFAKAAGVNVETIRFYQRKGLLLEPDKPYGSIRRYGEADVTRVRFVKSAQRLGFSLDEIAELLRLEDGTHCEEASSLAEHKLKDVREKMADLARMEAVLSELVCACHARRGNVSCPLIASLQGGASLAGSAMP
The data set can be described thus: EMSA. Particulars: 0-600 nM MerR, 30 nM DNA, no Hg stated; 10 mM Tris-HCl pH 8.0, 50 mM KCl, 5 mM MgCl2, 10% glycerol, 25 C 10 min; 8% native PAGE, 80 V 45 min; recombinant protein. (In EMSA bound probe runs differently from free probe, usually more slowly.)

Consider “TTGACTCCGTACATGAGTACGGAAGTAAGGT (double strand) [Pmer WT]”, for which the binding result is “binds”.
